This experiment addresses T1, Flag-OGT (O-GlcNAc transferase) (human (cDNA from THP-1 cells)) (UniProt O15294).
T1 sequence: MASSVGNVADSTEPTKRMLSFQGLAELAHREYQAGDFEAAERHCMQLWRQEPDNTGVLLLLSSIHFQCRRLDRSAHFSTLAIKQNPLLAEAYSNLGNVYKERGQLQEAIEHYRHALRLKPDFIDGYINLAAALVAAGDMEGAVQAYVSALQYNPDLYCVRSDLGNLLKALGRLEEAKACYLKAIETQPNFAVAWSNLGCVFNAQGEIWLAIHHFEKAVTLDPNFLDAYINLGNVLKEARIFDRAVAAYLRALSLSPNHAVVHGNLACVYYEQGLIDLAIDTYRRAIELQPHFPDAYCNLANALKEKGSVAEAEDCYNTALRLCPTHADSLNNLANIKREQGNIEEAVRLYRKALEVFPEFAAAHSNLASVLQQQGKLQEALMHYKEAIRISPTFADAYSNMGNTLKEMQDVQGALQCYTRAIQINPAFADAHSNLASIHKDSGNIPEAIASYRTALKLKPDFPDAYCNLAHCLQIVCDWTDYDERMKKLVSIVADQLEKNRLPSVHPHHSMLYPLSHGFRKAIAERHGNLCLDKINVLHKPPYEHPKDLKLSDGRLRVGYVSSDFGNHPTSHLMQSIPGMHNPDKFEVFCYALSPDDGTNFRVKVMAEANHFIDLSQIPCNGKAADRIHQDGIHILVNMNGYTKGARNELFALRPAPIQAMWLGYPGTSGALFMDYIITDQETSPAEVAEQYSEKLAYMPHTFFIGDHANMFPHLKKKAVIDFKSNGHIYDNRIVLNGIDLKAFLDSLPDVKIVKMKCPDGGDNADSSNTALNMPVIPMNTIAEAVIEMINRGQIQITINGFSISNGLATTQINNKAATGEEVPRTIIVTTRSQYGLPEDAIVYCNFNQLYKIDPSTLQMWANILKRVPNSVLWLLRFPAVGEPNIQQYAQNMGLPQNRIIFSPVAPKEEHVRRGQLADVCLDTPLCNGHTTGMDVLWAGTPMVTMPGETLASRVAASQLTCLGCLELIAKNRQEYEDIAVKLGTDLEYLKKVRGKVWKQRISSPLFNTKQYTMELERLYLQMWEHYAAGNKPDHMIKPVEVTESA
Nature of the experiment: co-IP; HEK293T cells co-transfected with tagged plasmids (in some panels also Myc-SOCS3 or Myc-CUL5); lysed in cold RIPA buffer with protease inhibitors; antibodies and Protein G Agarose beads overnight at 4 °C; immunoblot. (In general: In western blotting, separated proteins are transferred to a membrane and probed.)

Results are given in words; binding and its absence hold for the method and conditions named. In cells and extracts the contact can be indirect. Tags and fused reporters may be left off the sequences shown.

As to “Myc-CUL5 ΔCH + ΔNEDD (domain or fragment)”, the binding result is listed as “no binding”.

Source of the values: paper PMC10766641.
